Several values for one entry are separate records, joined by “and”; a condition that tells them apart may be missing. Equal entries are not always repeated. The campaign covered roughly 400,000 compounds. About 3,700 (0.93%) were called active. Inconclusive results, whose numbers are uncertain, are shown with a selection of clear calls. Calls follow the shape of the dose curve; as a rule, active = well fitted inhibition curve with a large enough effect; inconclusive = small, poorly fitted or top-dose-only effect, or another doubt; inactive = no such curve, though single readings can be large or run the other way. A potency beside an inconclusive call is a rough fit, not a confirmed value. The source holds several records for some structures; these can differ, active in one and inactive in another.
These compounds were tested against Vitamin D3 receptor (Homo sapiens) (UniProt P11473) (assay: Inhibitors of the vitamin D receptor (VDR): qHTS). Conditions: VDR-SRC2-3 peptide fluorescence polarization, 2 h; max response, negative = inhibition: stronger effect = lower value.
How it was run: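 FP read-out; VDR + SRC2-3 coactivator peptide; 23 nl compound by pintool; 2 h RT incubation; reagents held at 4 deg C, protected from light.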
% is scaled to controls: 0 for no effect and ±100 for the full control effect; potency is read from the fitted curve at half-maximal effect.

Chains of the proteins cited; added tags and fusions are not shown. Lines headed by an entry give the natural chain unless they say otherwise; changes in a name come on top.
UniProt P11473: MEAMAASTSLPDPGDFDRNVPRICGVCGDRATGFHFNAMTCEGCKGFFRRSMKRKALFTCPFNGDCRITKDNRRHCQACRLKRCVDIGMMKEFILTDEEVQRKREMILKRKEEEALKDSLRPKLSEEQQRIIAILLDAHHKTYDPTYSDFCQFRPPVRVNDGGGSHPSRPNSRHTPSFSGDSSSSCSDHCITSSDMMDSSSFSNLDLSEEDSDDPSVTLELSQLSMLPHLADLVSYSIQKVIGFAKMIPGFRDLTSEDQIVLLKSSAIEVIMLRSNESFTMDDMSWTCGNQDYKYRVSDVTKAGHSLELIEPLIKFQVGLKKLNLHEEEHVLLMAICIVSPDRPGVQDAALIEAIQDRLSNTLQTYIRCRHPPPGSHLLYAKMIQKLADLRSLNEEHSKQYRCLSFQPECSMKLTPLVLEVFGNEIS

Compound	Potency	max response, negative = inhibition
O=C(/C=C/c1ccccc1)c1c(O)n(CCc2ccccc2)c(=O)[nH]c1=O	inconclusive: 11.2 µM [inhibitor, partial curve, poor fit]	
O=C1NC(=O)C2(CCCC2)C(=O)N1		inactive: -2.29%
CC(=O)N1CCN(c2ccc(OCC3CO[C@@](Cn4ccnc4)(c4ccc(Cl)cc4Cl)O3)cc2)CC1 (stereo partly drawn)	inconclusive: 56.2 µM [inhibitor, partial curve]	
C=CCn1c(O)c(N=Nc2c(C)n(C)n(-c3ccccc3)c2=O)c(=O)[nH]c1=S	inconclusive: 28.2 µM [inhibitor, partial curve]	
COc1ccc(C(C)=O)cc1Cc1c(O)[nH]c(=S)[nH]c1=O	inconclusive: 100 µM [inhibitor, single point]	
C=C1C(=O)OC2CC3(C)OC3CCC(C)=CC(OC(C)=O)C12 (stereo not drawn)	active: 70.8 µM	
Cc1cc(N(CCCl)CCCl)ccc1C=Cc1ccncn1		inactive: 2.29%
CCCCC(=O)N/N=C/c1c(O)n(CCc2ccc(OC)c(OC)c2)c(=O)[nH]c1=O		inactive: -9.15%
CN1C(=O)N(C)C(=O)C2(Cc3cc([N+](=O)[O-])ccc3N3CCN(C(=O)c4ccccc4)CC32)C1=O (stereo not drawn)		inactive: 3.36%
C=CCN1CCc2cccc3c2[C@H]1Cc1ccc(O)c(O)c1-3	active: 10 µM	
O=C(COc1ccccc1/C=C1/NC(=O)NC1=O)Nc1ccccc1	inconclusive: 25.1 µM [inhibitor, partial curve, poor fit]	
CN1C(=O)C(=Cc2cccnc2)C(=O)N(C)C1=O	inconclusive: 70.8 µM [inhibitor, single point]	
COc1ccc2c3c1O[C@H]1[C@@H](O)C=C[C@H]4C(C2)NCCC341 (stereo partly drawn)		inactive: -12.1%
CC(C)(C)OC(=O)c1c(N)n(Cc2ccco2)c2nc3ccccc3nc12	inconclusive: 89.1 µM [inhibitor, single point]	
O=C1NC(=O)C(=Cc2ccc(-c3ccccc3[N+](=O)[O-])o2)C(=O)N1	active: 39.8 µM	
CN1C(=S)CN=C(c2ccccc2)c2cc(Cl)ccc21	inconclusive: 89.1 µM [inhibitor, single point]	
COC(=O)[C@]1(C)CC[C@@]2(C)CC[C@@]3(C)C4=CCc5c(cc(O)c(O)c5C)[C@]4(C)CC[C@@]3(C)C2C1 (stereo partly drawn)	active: 28.2 µM	
CSCC[C@@H]1NC(=O)[C@@H](NC(=O)[C@H](CCCNC(=N)N)NC(=O)[C@H](CC(C)C)NC(=O)[C@H](CCSC)NC(=O)[C@H](CC(=O)O)NC(=O)[C@H](Cc2ccccc2)NC(=O)[C@@H](N)CC(=O)O)CSSC[C@@H](C(=O)N[C@@H](Cc2c[nH]c3ccccc23)C(=O)N[C@@H](CCC(N)=O)C(=O)N[C@H](C(=O)O)C(C)C)NC(=O)[C@@H]2CCCN2C(=O)[C@H](CCCNC(=N)N)NC(=O)[C@H](Cc2ccc(O)cc2)NC(=O)[C@H](C(C)C)NC(=O)[C@H](CCCNC(=N)N)NC(=O)CNC(=O)[C@H](CC(C)C)NC1=O	inconclusive: 44.7 µM [inhibitor, full curve]	
COc1cc(Cn2c(N)c(C(=O)NCc3ccco3)c3nc4ccccc4nc32)cc(OC)c1OC	active: 79.4 µM	
O=C1NC(=O)C(=Cc2ccc(N3CCN(C(=O)c4ccccc4)CC3)c([N+](=O)[O-])c2)C(=O)N1	active: 50.1 µM	
O=C1NC(=O)C(=Cc2ccc(-c3ccc(Cl)cc3)o2)C(=O)N1	inconclusive: 20 µM [inhibitor, full curve, poor fit]	

Compound	Potency	max response, negative = inhibition
C=CCn1c(O)c(C(C)=Nc2cccc(C(=O)O)c2)c(=O)[nH]c1=O		inactive: 6.84%
O=C(O)CCCc1ccc(N(CCCl)CCCl)cc1	inconclusive: 79.4 µM [inhibitor, partial curve, poor fit]	
O=C(Nc1cccc(F)c1)N1CCC2(CC1)CCN(C(=O)Oc1ccccc1)CC2		inactive: 6.97%
OCC1OC(n2cnc3cc(Cl)c(Cl)cc32)C(O)C1O (stereo not drawn)		inactive: 14.6% and inactive: 14.2%
COC(=O)[C@@H]1C[C@H](OC(C)=O)C(=O)[C@H]2[C@@]1(C)CC[C@H]1C(=O)O[C@H](c3ccoc3)C[C@]21C	inconclusive: 44.7 µM [inhibitor, partial curve]	
NCC(O)c1cc(O)c(O)cc1F (stereo not drawn)	active: 28.2 µM	
Cc1cc(-c2ccccc2)cc(C)[n+]1Cc1ccccc1		inactive: -3.6%
CCS(=O)(=O)Nc1cccc(C(=C2CCCCC2)c2cnc[nH]2)c1		inactive: -13.3% and inactive: -0.417%
Cc1cccc(C(=O)NC(Oc2ccccc2)C(Cl)(Cl)Cl)c1 (stereo not drawn)	inconclusive: 28.2 µM [inhibitor, single point]	
Cc1ccc(N2C(=O)NC(=O)/C(=C/c3ccc(-c4ccc(C(=O)O)c(Cl)c4)o3)C2=O)cc1	inconclusive: 28.2 µM [inhibitor, single point]	
Cc1ccc(C=C2C(Cl)=C(Cl)C(Cl)=C2Cl)cc1	inconclusive: 89.1 µM [inhibitor, single point]	
CCOc1ccc(C=C2C(=O)NC(=S)NC2=O)cc1OCC	active: 28.2 µM	
Cc1ccc(N2C(=O)NC(=O)/C(=C\C=C\c3ccco3)C2=O)cc1C	inconclusive: 44.7 µM [inhibitor, partial curve, poor fit]	
O=C1c2ccccc2C(=O)N1SC1CCCCC1	active: 20 µM	
COc1ccc(/C=C2/C(=O)NC(=O)N(c3ccccc3)C2=O)cc1CN1C(=O)c2ccccc2C1=O	active: 79.4 µM	
CCN(CC)c1ccc(/C=C2\C(=O)NC(=O)N(Cc3ccco3)C2=O)cc1	inconclusive: 100 µM [inhibitor, single point]	
CCN1C(=O)/C(=C/c2ccc(N(CC)CC)cc2OC)C(=O)NC1=S	inconclusive: 10 µM [inhibitor, partial curve, poor fit]	
CCCCC(=O)N/N=C/c1c(O)n(CC)c(=S)[nH]c1=O		inactive: -19.1%
Cl.Cl.Cl.Cl.Cl.Cl.N.N.N.N.NNNNN.NNNNN.O.O.[Ru].[Ru].[Ru]	inconclusive: 56.2 µM [inhibitor, single point]	
CSc1ncc(/C=C2/C(=O)NC(=O)N(C3CCCCC3)C2=O)cn1	active: 20 µM	
O=C1NC(=O)C(=Cc2ccc(Sc3ccccc3)o2)C(=O)N1	active: 39.8 µM	

Compound	Potency	max response, negative = inhibition
COc1ccc(N2C(=O)NC(=O)/C(=C\c3ccccc3[N+](=O)[O-])C2=O)cc1	active: 50.1 µM	
CCOP(=S)(OCC)Oc1cc(C)oc(=O)c1Cl	active: 28.2 µM	
Cc1cccc(N2C(=O)NC(=O)/C(=C/c3ccc([N+](=O)[O-])o3)C2=O)c1	inconclusive: 100 µM [inhibitor, single point]	
Cc1cccnc1-n1c(C)nc2ccccc2c1=O	inconclusive: 4.47 µM [inhibitor, full curve, poor fit]	
Cc1c(C=O)c2ccccc2n1Cc1cccc(F)c1	active: 20 µM	
c1cc(CN2CCCC3(CCNCC3)C2)ccn1	inconclusive: 79.4 µM [inhibitor, single point]	
CCCCn1c(NS(=O)(=O)c2ccc(C)cc2)c(C(=O)OCC)c2nc3ccccc3nc21	inconclusive: 44.7 µM [inhibitor, partial curve, poor fit]	
c1ccc(CN2CCC3(CCNCC3)CC2)cc1	inconclusive: 70.8 µM [inhibitor, partial curve]	
Cc1cccc2sc(NC(=O)c3cccn(Cc4ccccc4)c3=O)nc12		inactive: 6.77%
CC1C(=O)OC2O[C@]3(C)CC[C@H]4C(C)CCC1[C@]24OO3 (stereo partly drawn)		inactive: -9.54%
N#Cc1c(/N=C/c2c(O)n(Cc3ccco3)c(=O)[nH]c2=O)sc2c1CCCC2	active: 79.4 µM	
COc1ccc(CNc2oc(-c3cccc4ccccc34)nc2P(=O)(OC)OC)cc1	inconclusive: 89.1 µM [inhibitor, partial curve, poor fit]	
CCc1ccc(/C=C(/C#N)C(N)=S)cc1	inconclusive: 79.4 µM [inhibitor, single point]	
CC(C)(O)/C=C/C(=O)C(C)(O)C1C(O)CC2(C)C3CC=C4C(C=C(O)C(=O)C4(C)C)C3(C)C(=O)CC12C (stereo not drawn)	inconclusive: 89.1 µM [inhibitor, single point]	
Cc1ccc(C)c(CN2C(=O)c3ccccc3S(=O)(=O)c3ccc(C(=O)N4CCCCCC4)cc32)c1	inconclusive: 100 µM [inhibitor, single point]	
O=c1[nH]c(=O)n(C2CCCCC2)c(O)c1C1NCCc2ccccc21 (stereo not drawn)	inconclusive: 50.1 µM [inhibitor, partial curve]	
CN1CCCCC1c1ccc(-c2cccnc2)nc1 (stereo not drawn)		inactive: -14.1% and inactive: 0% and inactive: -3.77%
C[C@]12CCC(=O)C[C@@H]1CC[C@@H]1[C@@H]2CC[C@]2(C)[C@@H](O)CC[C@@H]12	inconclusive: 89.1 µM [inhibitor, partial curve, poor fit]	
CC1(C)C(=O)C=C[C@@]2(C)C1=C(O)C(=O)[C@@]1(C)C2CC[C@@]2(C)C(c3ccoc3)C[C@H]3O[C@@]321 (stereo partly drawn)	active: 7.94 µM	
O=P(Oc1ccccc1)(Oc1ccccc1)c1ccccc1	inconclusive: 89.1 µM [inhibitor, partial curve, poor fit]	
CC12CCC(O)CC1CCC1C2CCC2(C)C(C3=CC(=O)OC3)C(O)CC12O (stereo not drawn)	inconclusive: 79.4 µM [inhibitor, partial curve, poor fit]	

Taken from the listing, 5 compounds:
Compound	Potency	max response, negative = inhibition
Cc1ccc(C)c(CN2C(=O)c3ccccc3S(=O)(=O)c3ccc(C(=O)N4CCCCCC4)cc32)c1	inconclusive: 100 µM [inhibitor, single point]	
O=c1[nH]c(=O)n(C2CCCCC2)c(O)c1C1NCCc2ccccc21 (stereo not drawn)	inconclusive: 50.1 µM [inhibitor, partial curve]	
CN1CCCCC1c1ccc(-c2cccnc2)nc1 (stereo not drawn)		inactive: -14.1% and inactive: 0% and inactive: -3.77%
C[C@]12CCC(=O)C[C@@H]1CC[C@@H]1[C@@H]2CC[C@]2(C)[C@@H](O)CC[C@@H]12	inconclusive: 89.1 µM [inhibitor, partial curve, poor fit]	
CC1(C)C(=O)C=C[C@@]2(C)C1=C(O)C(=O)[C@@]1(C)C2CC[C@@]2(C)C(c3ccoc3)C[C@H]3O[C@@]321 (stereo partly drawn)	active: 7.94 µM	

From PubChem BioAssay AID504847 (National Center for Advancing Translational Sciences (NCATS), 2011)
